Measured values: patent US20240083943A1 (IDP DISCOVERY PHARMA, S.L., priority 2020, published 2024)
No end group written: not given here.

Assay: general procedure: Fmoc solid-phase peptide synthesis; Rink amide MBHA resin
Conditions: whole synthesis

## KASVMRLTISYLRV
  final HPLC purity: 96.42%

## LDKASVMRLTISYLRVRK
  final HPLC purity: 95.16%

## KASVMRLTISYLRVR
  final HPLC purity: 96.65%
